Reference: PubChem BioAssay (NCATS)
This list was built around the results that the source calls inconclusive (neither active nor inactive); the mix of calls is not that of the screen. A call without a number means that no potency is given here. For some assays here: A potency beside an inconclusive call is a rough fit, not a confirmed value. Activity calls are given as the source filed them. Calls follow the shape of the dose curve; as a rule, active = well fitted curve in the direction sought with a large enough effect; inconclusive = small, poorly fitted or top-dose-only effect, or another doubt; inactive = no such curve, though single readings can be large; an effect the other way counts as inactive or inconclusive.

Sequences of proteins named here, by UniProt entry; tags and fusion partners are left off.
UniProt P16473, whole entry, looked up: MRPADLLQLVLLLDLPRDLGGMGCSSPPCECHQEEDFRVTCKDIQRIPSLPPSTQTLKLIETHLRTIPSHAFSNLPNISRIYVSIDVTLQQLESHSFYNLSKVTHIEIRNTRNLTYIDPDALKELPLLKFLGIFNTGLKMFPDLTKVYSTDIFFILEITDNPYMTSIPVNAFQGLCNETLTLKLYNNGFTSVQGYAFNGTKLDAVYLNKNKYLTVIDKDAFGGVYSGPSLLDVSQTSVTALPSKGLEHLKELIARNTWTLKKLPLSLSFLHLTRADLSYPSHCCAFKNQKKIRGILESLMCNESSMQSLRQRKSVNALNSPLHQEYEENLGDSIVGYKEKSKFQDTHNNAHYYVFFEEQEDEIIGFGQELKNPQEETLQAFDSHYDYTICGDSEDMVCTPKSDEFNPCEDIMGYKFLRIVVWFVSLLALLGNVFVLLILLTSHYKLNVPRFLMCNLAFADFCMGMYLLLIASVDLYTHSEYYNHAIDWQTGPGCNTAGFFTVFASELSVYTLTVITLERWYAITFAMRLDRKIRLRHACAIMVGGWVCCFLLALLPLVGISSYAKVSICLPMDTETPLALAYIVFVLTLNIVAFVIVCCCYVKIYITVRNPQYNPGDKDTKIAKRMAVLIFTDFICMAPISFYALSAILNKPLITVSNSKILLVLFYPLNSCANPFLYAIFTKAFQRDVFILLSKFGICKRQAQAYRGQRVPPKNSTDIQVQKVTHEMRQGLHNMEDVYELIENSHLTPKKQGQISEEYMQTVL

Assays:
[1] = target: Thyrotropin receptor (Homo sapiens) (UniProt P16473); assay: qHTS Assay for Antagonists of the Thyroid Stimulating Hormone Receptor (AID 488980); conditions: TSHR-expressing cells, cAMP antagonist read-out; at 57.5 µM (top of the series)
In short: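 HEK293 cells transfected with human TSHR, suspended in HEPES-buffered HBSS with 70 uM RO 20-1724, were treated with compounds plus TSH at EC80 (4 nM final). cAMP was measured by competitive HTRF (cryptate anti-cAMP antibody, cAMP-d2 acceptor).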

[2] = Validation screen for small molecules that induce genotoxicity in human embryonic kidney (HEK293T) cells expressing luciferase-tagged ELG1 (AID 493106); conditions: luminescence; series mostly up to 46.1 µM; also: potency is read from the fitted curve at half-maximal effect
In short: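 HEK293T cells expressing luciferase-tagged ELG1, 2,000 cells/well, exposed to compound 16 hr at 37 °C, 5% CO2. Luciferase read after ONE-Glo, 30 min at room temperature; increased signal indicates genetic stress.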

SMILES | activity, negative = inhibition [1] | Potency [2]
CCC1(C2=NCCN2)Cc2ccccc2O1 (stereo not given) | inactive: -0.148% | –
COc1ccccc1N1CCNCC1 | – | inactive
C[C@@H]1O[C@@H](O[C@H]2C[C@@H](O)[C@]3(CO)[C@H]4[C@H](O)C[C@]5(C)[C@@H](C6=CC(=O)OC6)CC[C@]5(O)[C@@H]4CC[C@]3(O)C2)[C@H](O)[C@H](O)[C@H]1O | – | inactive
COc1ccc(CNC(=O)/C=C/c2ccc3[nH]cc(CCN(C)C)c3c2)cc1 | – | inactive
N#C/C(=C/c1ccc(O)c(O)c1)C(N)=S | – | inconclusive: 3.66 µM [activator, single point]
